Values of other authors, collected in US20140248347A1, “PHARMACEUTICAL COMPOSITIONS OF N-METHYL-2-[3-((E)-2-PYRIDIN-2-YL-VINYL)-1H-INDAZOL-6-YLSULFANYL]-BENZAMIDE” (PFIZER INC., priority 2011, published 2014).

Tests used:
[1] = tested on: endothelial cell; settings: background statement; cited from earlier work
[2] = tested on: vascular endothelial growth factor (VEGF) receptors 1, 2 and 3; settings: background statement; cited from earlier work

## CNC(=O)c1ccccc1Sc1ccc2c(/C=C/c3ccccn3)n[nH]c2c1 [axitinib, N-methyl-2-[3-((E)-2-pyridin-2-yl-vinyl)-1H-indazol-6-ylsulfanyl]-benzamide]
[1]
  inhibition of VEGF-mediated endothelial cell proliferation and survival: potently inhibit
[2]
  inhibition of VEGF receptors 1, 2 and 3: potent and selective inhibitor
